The results in this text go back to patent US20120134991A1.

Protein sequences, listed by entry. Tags and fused reporters are not part of them. Lines headed by an entry give the natural chain unless they say otherwise; changes in a name come on top.
UniProt P14416: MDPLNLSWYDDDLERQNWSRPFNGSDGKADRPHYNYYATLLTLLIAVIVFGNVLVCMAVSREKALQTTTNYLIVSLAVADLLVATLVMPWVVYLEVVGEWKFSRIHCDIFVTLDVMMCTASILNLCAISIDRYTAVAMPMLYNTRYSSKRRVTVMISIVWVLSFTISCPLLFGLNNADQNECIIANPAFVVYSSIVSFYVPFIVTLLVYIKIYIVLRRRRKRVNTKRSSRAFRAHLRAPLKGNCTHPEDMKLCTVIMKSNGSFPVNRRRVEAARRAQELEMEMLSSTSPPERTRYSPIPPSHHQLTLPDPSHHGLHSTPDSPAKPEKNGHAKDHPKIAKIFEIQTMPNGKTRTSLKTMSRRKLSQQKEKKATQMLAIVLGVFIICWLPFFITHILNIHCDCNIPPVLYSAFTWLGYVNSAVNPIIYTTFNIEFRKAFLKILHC
UniProt P18901: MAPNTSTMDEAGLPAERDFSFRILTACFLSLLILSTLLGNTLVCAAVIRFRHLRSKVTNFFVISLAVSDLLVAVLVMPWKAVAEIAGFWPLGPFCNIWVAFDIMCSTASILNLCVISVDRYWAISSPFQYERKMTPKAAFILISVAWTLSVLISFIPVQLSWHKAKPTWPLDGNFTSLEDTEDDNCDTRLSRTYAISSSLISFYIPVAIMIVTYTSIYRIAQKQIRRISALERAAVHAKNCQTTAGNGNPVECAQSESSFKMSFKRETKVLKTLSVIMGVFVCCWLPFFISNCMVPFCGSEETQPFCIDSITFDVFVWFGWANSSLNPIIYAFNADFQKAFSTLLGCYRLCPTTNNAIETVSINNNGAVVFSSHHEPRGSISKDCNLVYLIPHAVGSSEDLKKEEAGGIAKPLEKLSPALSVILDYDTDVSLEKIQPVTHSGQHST
UniProt P21728: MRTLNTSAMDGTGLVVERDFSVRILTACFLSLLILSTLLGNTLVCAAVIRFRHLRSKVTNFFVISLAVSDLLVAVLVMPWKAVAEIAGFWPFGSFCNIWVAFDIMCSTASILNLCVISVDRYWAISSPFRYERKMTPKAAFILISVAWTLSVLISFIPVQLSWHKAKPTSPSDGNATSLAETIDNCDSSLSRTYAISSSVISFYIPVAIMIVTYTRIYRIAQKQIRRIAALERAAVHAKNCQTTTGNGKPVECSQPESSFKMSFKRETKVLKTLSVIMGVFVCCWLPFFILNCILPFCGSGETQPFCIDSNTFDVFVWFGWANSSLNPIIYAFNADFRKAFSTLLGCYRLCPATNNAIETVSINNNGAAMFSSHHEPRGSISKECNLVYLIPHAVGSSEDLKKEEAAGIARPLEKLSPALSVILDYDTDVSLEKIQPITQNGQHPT

Test [1] concerns the target D2 receptor from human post-mortem striatum (human) (UniProt P14416). Kind of test: co-immunoprecipitation with anti-D2 receptor antibody from human post-mortem striatum, densitometry of Western blots. (Immunoblotting shows a protein as a band on a membrane.)
Test [2] has the same target. The test is described as follows: co-immunoprecipitation with D2 receptor antibody from human post-mortem striatum, immunoblot with D1 antibody.
Test [3] shares this target. The test is described as follows: co-immunoprecipitation with anti-D2 receptor antibodies from human post-mortem striatum, immunoblot with D1 antibody (FIG. 4).
The target of test [4] is D1 receptor from solubilized rat striatum / prefrontal cortex (rat) (UniProt P18901). The test is described as follows: GST pull-down from rat striatal extract, Western blot (FIG. 1C).
Test [5] shares this target. Kind of test: GST pull-down from rat striatal extract, Western blot (FIG. 1D).
The target in test [6] is T1, GST-D2LIL3-29-2 (I256-V270) (human).
T1 sequence: IMKSNGSFPVNRRRV
Kind of test: in vitro binding assay with S35-labelled probe (FIG. 1F).

Results are given in words; binding and its absence hold for the method and conditions named. For part of these data: In cells and extracts the contact can be indirect. Some binding calls cover weakened binding; strength is not graded here. For part of these data: Sequences can lack the tags named with a protein.

“human D1R (from UniProt P21728 1-446) (receptor)”: the binding entry in test [1], in test [2] and in test [3] was “binds” throughout.

With “GST-D2IL3-L (K211-Q373) (from UniProt P14416 211-373)”, the binding result in test [4] and in test [5] was “binds” each time.

In the case of “S35-D1 tail probe (from UniProt P21728 332-446)”, in test [6], the binding result is reported as “binds”.
